Measured values published in the supplement of paper PMC3334620.
The full ranking holds about 33,000 sequences; the median of “E-score (-0.5 to 0.5)” is about -8e-05, and the highest 2% start at about 0.23. This is one part of the list.

The sequences below were run against T1, Nrg2 (UniProt P38082) (assay: PBM E-score (8-mer binding enrichment) (E-score (-0.5 to 0.5)); higher = stronger / more preferred TF binding). Conditions: protein concentration: 100 nM; construct: GST-full length.
T1 sequence: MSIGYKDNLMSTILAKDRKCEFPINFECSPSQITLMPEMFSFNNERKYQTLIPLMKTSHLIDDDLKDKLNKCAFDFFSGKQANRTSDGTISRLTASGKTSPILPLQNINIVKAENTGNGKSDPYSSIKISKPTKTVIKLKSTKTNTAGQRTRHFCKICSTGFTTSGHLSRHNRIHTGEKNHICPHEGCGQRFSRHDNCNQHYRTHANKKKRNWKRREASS
Summary of the method: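 For each ungapped eight-base word taken together with its reverse complement, the Universal PBM Analysis Suite assigned an E-score. Binding data came from GST-tagged yeast transcription factors, applied at about 100-200 nM, on universal all-10-mer Agilent arrays made double-stranded by primer extension. Fluorescent anti-GST marked bound protein, and scans were normalised with masliner.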

Sequence	PBM E-score
AAGGTTAG	-0.0412
AGATCCCG	0.228
GGCCAGTA	0.163
CGTATTTA	0.248
CAGGGCCC	0.42
ACTCTCAA	-0.159
AGGCTACA	-0.0869
ATGACACC	0.0972
ACTCCTAG	-0.186
GGGGCTGA	-0.0972
TCGGAACA	0.313
AATGGACG	0.141
GAGCGTCC	-0.271
AGAGTCGC	0.0601
AAGGGCCT	0.0464
ATTTAACG	-0.0637
GAAACCGC	0.153
AATGTTGG	0.064
CGTAGCCC	-0.252
CCAATGCC	-0.132
ACGTATCT	-0.0443
GCACTACA	-0.139
ATCGATTA	0.0753
AATATCTG	0.0127

Sequence	PBM E-score
TAGTTCCA	0.0983
CACTGGGA	-0.0219
AGGGGGGA	-0.241
AATGGTGC	-0.0715
ATTCTTCA	0.0174
GACTGATA	-0.2
CGGTACAC	-0.182
AACAAGAC	0.147
ACTAACGC	-0.045
AGCTCCGC	-0.0361
ACTGAACC	-0.111
CTGATGTC	0.228
GGGCATCA	-0.154
AACGGCGA	0.303
ATCTTAAC	0.0939
CGCGCGGC	0.296
CAAAAAGC	0.102
AACAATTC	-0.00547
AGGTTTAG	-0.18
ATTGTCCA	0.206
CAGGTCTC	-0.152
TATCCCGA	0.118
AATTAGTG	0.146
CCTGGCAC	-0.106

Sequence	PBM E-score
CTATTAAA	0.151
TCGTTCAA	0.039
GAATCCCA	0.0684
CAGGGCCG	0.088
CGGAGTCA	-0.0858
AGTATAAC	-0.131
CCCGGCTA	-0.28
GGTTAACA	0.0255
CAACCCTC	0.0136
ATTGCTGC	0.138
ACCTTAGA	-0.0789
AGAAGCTG	-0.0403
AGGATGCC	-0.18
ACAGATTA	-0.118
AGTAGAAC	-0.229
GGATCTTA	0.0778
ATCATAAC	0.0629
CCAGTAGA	-0.0606
CTAGAAGC	-0.2
AGCATTCG	-0.118
AAGGAAGT	0.0362
ATCTTGTG	0.0148
CCCCGGCC	-0.266
CATAACCG	-0.0644

Reprinted at random: 2 records from the list.
Sequence	PBM E-score
CAGGTCTC	-0.152
CCCGGCTA	-0.28

More records.

Sequence	PBM E-score
CGCCTCGA	0.16
ATCCTCAG	0.1
AACAAAGC	0.0731
AGTTTCAT	0.274
CCCCTACA	-0.118
ACGCAAAA	0.0462
GCAGCATA	0.0385
CCACCGCA	0.0791
TACATTCA	-0.00365
CCCGCGCA	0.128
TGACGACA	0.145
GGTTTTAC	-0.257
CCTTCCGA	-0.252
TACAGACA	-0.00813
GCACTGGC	-0.204
AACGGTAG	-0.0377
ATGCTTAC	-0.198
GATCGTGC	0.183
CTTCGAAG	0.0935
CACCAGAC	-0.0776
GAAAAGCA	-0.0271
CCGCCGCC	0.0918
AATTGGAG	-0.0651
GCAAGCAA	0.00372

Sequence	PBM E-score
CATGCGAC	0.0328
CAAATTTA	0.0933
GAGCACAA	0.0508
ACTCGTCC	-0.116
GCGCGCGA	0.251
ACAGATGT	-0.0767
AGTCGACT	0.243
ACTTGGAG	-0.108
ACTATGGC	0.0287
AGGTTTGC	0.0195
GGTGCGCA	0.107
ATACCCAC	0.0337
ATTCGACG	0.138
AGTGTGGA	-0.0249
TATTCAAA	0.147
GACGAAAC	0.00944
ACATTCCC	0.064
CTCATCAG	0.247
GCTTCACC	-0.131
TCTCCCAA	-0.0633
ATGTTTAG	0.188
AGGATTTA	-0.00422
AGGACCGA	-0.0557
CAGCGTGA	-0.0547

Sequence	PBM E-score
AGTGTCAT	0.0749
AAGATAAA	0.131
ACGCGAGG	0.0848
AAGCGGTA	-0.176
CCTCTATC	-0.0554
AACTTCGC	0.0614
CTGCGCCA	0.083
ATAATGAC	-0.2
AGGTTGAG	-0.25
TGTCCGAA	0.143
AACCTCTA	-0.1
CTGTTTTC	-0.0788
ACAGGAGC	-0.0278
GTGCGGTA	0.0282
CCAGCAGG	-0.249
AGTAGAGC	-0.226
AGCTCAAT	0.114
CTTACTCA	-0.154
AACTGGAG	-0.0807
CCGGTACC	-0.221
AACGTATC	-0.0524
ATAGAAAC	0.0807
AGGTCTGC	-0.178

For convenience, some entries already given.
Sequence	PBM E-score
CCCCGGCC	-0.266
CATAACCG	-0.0644
CGCCTCGA	0.16
ATCCTCAG	0.1
